Measured values taken from patent US10544186B2, “Process for the synthesis of amide bonds with the aid of novel catalysts” (Merck Patent GmbH, priority 2016, dated 2020).

Experiment: Solubility of the amide linking reagents in organic solvents
Assay type: physicochemical
Procedure: All solubility determinations are carried out in a tared gas-tight 4 ml bottle with magnetic stirrer bar. The amide linking reagent (at least 5 mg) is weighed out and a certain amount of the solvent to be investigated is added. The mixture is stirred for 2-5 minutes. If undissolved solid is still present, solvent (50-100 μl) is additionally added, and the mixture is stirred again. As soon as a clear solution is present, the experiment is terminated.

CN(C)C(n1n[n+]([O-])c2ncccc21)=[N+](C)C.F[P-](F)(F)(F)(F)F [HATU, 1-(dimethylamino(dimethylamonium-1-ylidene)methyl)-1H-azabenzo[d][1,2,3] triazole 3-oxide hexafluorophosphate, reference compound]
solubility in 9CH2Cl2:1CH3CN (solvent 9CH2Cl2:1CH3CN): 1.2 mg/mL | solubility in CH2Cl2 (solvent CH2Cl2): <1.2 mg/mL | solubility in CH3CN (solvent CH3CN): 212 mg/mL | solubility in DMF (solvent DMF): 370 mg/mL | solubility in Hexane (solvent Hexane): <1.2 mg/mL | solubility in THF (solvent THF): <1.2 mg/mL | solubility in Toluene (solvent Toluene): <1.2 mg/mL
